{
  "source": "patent US7361743B2",
  "about": "(Pfizer Inc, priority 2004, dated 2008)",
  "test_system": "E. coli transcription/translation (bacterial protein synthesis, E. coli S30 extract)",
  "assay": "In vitro inhibition of E. coli transcription and translation assay (TT), cell-free",
  "type": "biochemical",
  "protocol": "Inhibition of bacterial protein synthesis was assayed in a cell-free E. coli transcription/translation assay.\nStock solutions of compounds were prepared at 10 mg/mL in DMSO. The assay contained less or equal to 1% (v/v) final concentration of DMSO. Three-fold serial dilutions were prepared in assay buffer at 6-fold final concentration in 96 well microtiter plate.\nAll vials, tubes and microtiter plates are RNase free. The Mix was freshly prepared with 10 μl H2O, 10 μl AA-M, 10 μl AA-L, 80 μl Premix and 50 μl ES30 extract. The assay was performed in a 96-well plate. Five microliters of compounds at various concentrations (6-fold final assay concentration) were preincubated with 20 μl of the mix for 5 min at room temperature. […] 150 μl of the reaction was transferred to a ½-area plate and increase in absorption at OD420 nm was monitored for 10 min using a Spectramax plate reader (Molecular Devices). […]\nThe inhibition are expressed as percent of control activity (without inhibitor) which is calculated according to equation (1): Inhibition %=(compound slope-blank slope)/(control slope-blank slope)*100 (1)\nAll IC50s were determined by fitting the experimental data to equation (2) using software DeltaGraph (DeltaPoint Inc.): Y=Y0/(1+(X/IC50)[…])+c (2) […]",
  "note": "At least one structure is not confirmed: it was looked up by name or label, or the drawing left a doubt.",
  "data": [
    {"smiles": "CCC[C@@H]1C[C@@H](C(=O)N[C@@H]([C@H]2O[C@H](SC)[C@H](O)[C@@H](O)[C@H]2O)[C@H](C)Cl)N(C)C1", "note": "[clindamycin, reference compound]", "values": [
      {"measurement": "IC50", "result": 1430, "unit": "nM"}
    ]}
  ]
}
